# Reference: patent US20240156836A1, “METHODS OF TREATING TE[…]” (priority 2018, published 2024)
# Experiment: Influence of blood collection tubes: ex vivo TU to T conversion and serum / NaF-EDTA plasma T conversion factor
structure (smiles),measurement,value
"C[C@]12CC[C@H]3[C@@H](CCC4=CC(=O)CC[C@@]43C)[C@@H]1CC[C@@H]2O [T, Testosterone]",expected equivalent T concentration in NaF-EDTA plasma as percent of the serum value,82.4%
same,matrix effect associated with NaF-EDTA plasma compared to serum,0.858
